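Control-channel Italica luciferase signal in doxycycline-induced 293T-iDUX4 cells, given as percent activity after a 24-hour treatment.
The test concentration is not given here.
Percent change in the Italica control signal; more negative values mean stronger inhibition, which points to nonspecific, tet-on or cytotoxic effects.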

Values are in %.
Common to all entries: measured here: Italica tet-on control reporter.
This is a side read-out of the assay, for part of the compounds, not drawn at random.

| # | Compound | activity change (%) |
|---|---|---|
| 1 | `CN1c2ccc(-c3ccccc3F)cc2[C@H]2[C@H](CCN2S(=O)(=O)c2ccccc2F)[C@H]1CO` | -4.616 |
| 2 | `N#Cc1cccc(-c2ccc3c(c2)[C@H]2[C@H](CCN2Cc2ccncc2)[C@H](CO)N3)c1` | -79.32 |
| 3 | `COc1ccc(C#Cc2ccc3c(c2)[C@H]2[C@H](CCN2C(=O)Nc2ccc(C(F)(F)F)cc2)[C@H](CO)N3C)cc1` | -2.403 |
| 4 | `CCc1sc(N2[C@H](C#N)[C@H](c3ccccc3-c3ccc(F)cc3)[C@@H]2CO)nc1C` | -35.74 |
| 5 | `COc1ccc2c3c(n(C)c2c1)[C@@H](CO)N(Cc1ccccc1OC)CC31CCN(CC2CC2)CC1` | -38.97 |
| 6 | `CO[C@H]1CN(C)C(=O)c2ccc(NC(=O)c3cccc(Oc4ccccc4)c3)cc2OC[C@H](C)NC[C@@H]1C` | -18.39 |
| 7 | `O=C(C[C@@H]1CC[C@H](NC(=O)Nc2cc(F)ccc2F)[C@H](CO)O1)Nc1ccc(-c2ccccc2)cc1` | -10.62 |
| 8 | `COc1cccc(-c2ccc3c(c2)[C@H]2[C@H](CCN2S(=O)(=O)c2ccccc2C)[C@@H](CO)N3C)c1` | -61.08 |
| 9 | `C[C@H](CO)N1C[C@H](C)[C@@H](CN(C)S(=O)(=O)Cc2ccccc2)OCc2ccccc2-c2c(n(C)c3ccccc23)C1=O` | -25.6 |
| 10 | `C/C=C/c1ccccc1[C@@H]1[C@@H](C#N)N(S(=O)(=O)c2cccc(F)c2)[C@H]1CO` | -12.48 |
| 11 | `CCC(=O)N1[C@H](CO)[C@@H](c2ccc(/C=C/c3ccccc3)cc2)C12CN(S(C)(=O)=O)C2` | -16.25 |
| 12 | `CC(C)C#Cc1ccc([C@H]2[C@@H](CO)N3C(=O)CN(S(=O)(=O)c4ccccc4)C[C@H]23)cc1` | -25.06 |
| 13 | `COc1cccc(S(=O)(=O)N(C)C[C@H]2OCc3ccccc3-c3c(n(C)c4ccccc34)C(=O)N([C@@H](C)CO)C[C@@H]2C)c1` | -16.21 |
| 14 | `COc1ccc2c3c(n(C)c2c1)[C@H](CO)N(Cc1ccc2c(c1)OCO2)CC31CN(C)C1` | 6.288 |
| 15 | `Cc1ccccc1S(=O)(=O)N1CC[C@@H]2[C@H](CO)Nc3ccc(C#Cc4ccccc4)cc3[C@@H]21` | -66.6 |
| 16 | `COc1ccc2c3c([nH]c2c1)[C@H](CO)N(C(=O)C1CCC1)CC31CN(Cc2cccc(F)c2)C1` | -16.75 |
| 17 | `COc1ccc2c3c(n(C)c2c1)[C@@H](CO)NCC31CCN(S(=O)(=O)c2cccc(F)c2)CC1` | -9.71 |
| 18 | `CO[C@H]1CN(C)C(=O)c2cc(NC(=O)Nc3cccc(F)c3)ccc2OC[C@@H](C)N(C(=O)C2CC2)C[C@H]1C` | -9.905 |
| 19 | `O=C(NC1CCCCC1)N1CC(=O)N2[C@H](CO)[C@@H](c3ccc(-c4cccc(F)c4)cc3)[C@@H]2C1` | -7.192 |
| 20 | `O=C(Nc1ccc(F)cc1)N1CCCCN2[C@H](C1)[C@H](c1ccc(C#Cc3ccccc3)cc1)[C@@H]2CO` | -68.08 |
| 21 | `O=C(C[C@@H]1C[C@@H]2c3cc(NC(=O)Nc4ccccc4F)ccc3O[C@@H]2[C@@H](CO)O1)NCCc1ccccc1` | 2.019 |
| 22 | `O=C(c1ccccn1)N1CC[C@@H]2[C@H](CO)Nc3ccc(C#Cc4ccccc4)cc3[C@@H]21` | -14.52 |
| 23 | `C[C@H]1CN([C@@H](C)CO)C(=O)c2c(c3ccccc3n2C)-c2ccccc2CO[C@H]1CN(C)S(=O)(=O)c1ccc(C#N)cc1` | -58.38 |
| 24 | `COc1cccc(S(=O)(=O)N2CC[C@@H]3[C@H](CO)N(C)c4ccc(C#Cc5cccnc5)cc4[C@@H]32)c1` | -7.195 |
| 25 | `COc1ccccc1CN1[C@H](CO)[C@@H](c2ccccc2)C12CN(C(=O)c1cnccn1)C2` | -4.926 |
| 26 | `COc1ccccc1S(=O)(=O)N1CC[C@@H]2[C@@H](CO)N(C)c3ccc(-c4ccccc4)cc3[C@@H]21` | -27.96 |
| 27 | `COc1ccc(S(=O)(=O)N2CCC3(CC2)CN(C(=O)CN(C)C)[C@H](CO)c2c3c3ccc(OC)cc3n2C)cc1` | -70.2 |
| 28 | `Fc1ccccc1-c1ccc(C2[C@@H]3CN(Cc4ccccn4)C[C@H]2N3)cc1` (some centres not stated) | -38.6 |
| 29 | `COc1ccc(S(=O)(=O)N2CC[C@H]3[C@@H](CO)N(C)c4ccc(-c5ccccc5F)cc4[C@H]32)cc1` | 5.26 |
| 30 | `OC[C@H]1[C@H](c2ccc(C#CC3CCCC3)cc2)[C@@H]2CN(CCC(F)(F)F)CCCCN12` | -41.62 |
| 31 | `COc1ccccc1C#Cc1ccc([C@@H]2[C@@H](C#N)N(C(=O)C3CCC3)[C@H]2CO)cc1` | -35.59 |
| 32 | `O=C(Nc1ccc2c(c1)[C@@H]1C[C@H](CC(=O)N3CCc4ccccc4C3)O[C@H](CO)[C@@H]1O2)Nc1ccccc1F` | -15.58 |
| 33 | `CO[C@H]1CN(C)C(=O)c2cc(NC(=O)c3ccc4c(c3)OCO4)ccc2OC[C@H](C)N(CCC(F)(F)F)C[C@@H]1C` | -1.258 |
| 34 | `Cc1cccc(S(=O)(=O)N2C[C@@H]3N[C@H](C2)C3c2ccc(-c3ccccc3F)cc2)c1` (some centres not stated) | -65.77 |

The results are deposited in PubChem (AID1224904; Broad Institute, 2016).